Laboratory results: PubChem BioAssay AID1159578 (Peter MacCallum Cancer Centre, 2015)

- Purpose: 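siRNA pools altering how lymphatic endothelial cells close a scratch wound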 (primary screen)
- Cells: human lymphatic endothelial cells
- Reagent: siRNA pool against human genes, 40 nM
- Duration: 48 h after transfection
- Read-out: 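High-content imaging of dye-stained cells in a scratch assay measures filled wound area and nuclei per well; duplicate means given as ratio to mock and robust z-score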
- Direction: migration robust z-score: higher = faster migration into the scratch; nuclei per well: higher = more cells in the well
- Active means: 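Pools averaging fewer than 3300 nuclei are never called; remaining pools count as changed when migration robust z lies outside -2 to 2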
- Meaning of the calls: active = migration changed; inactive = no migration change, or too few cells
Here is a random part of about 18,000 deposited reagents. Over the whole deposit, about 1,030 (5.7%) were called active. 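Inactive calls also include pools with fewer than 3300 nuclei, whose migration was not assessed.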 Raw values are not corrected between plates. Further read-outs or replicates are left out here.

{"gene": "SUMO3 (small ubiquitin like modifier 3)", "migration robust z-score": -0.46, "nuclei per well, duplicate mean": 5130, "Call": "inactive"}
{"gene": "EEF1A2 (eukaryotic translation elongation factor 1 alpha 2)", "migration robust z-score": -0.21, "nuclei per well, duplicate mean": 4976, "Call": "inactive"}
{"gene": "PXDC1 (PX domain containing 1)", "migration robust z-score": 1.34, "nuclei per well, duplicate mean": 6102, "Call": "inactive"}
{"gene": "TBCB (tubulin folding cofactor B)", "migration robust z-score": -2.59, "nuclei per well, duplicate mean": 4032, "Call": "active"}
{"gene": "CREB3L4 (cAMP responsive element binding protein 3 like 4)", "migration robust z-score": 1.09, "nuclei per well, duplicate mean": 5659, "Call": "inactive"}
{"gene": "MED23 (mediator complex subunit 23)", "migration robust z-score": 0.05, "nuclei per well, duplicate mean": 5700, "Call": "inactive"}
{"gene": "CDK4 (cyclin dependent kinase 4)", "migration robust z-score": -4.98, "nuclei per well, duplicate mean": 3188, "Call": "inactive"}
{"gene": "SFXN1 (sideroflexin 1)", "migration robust z-score": -0.42, "nuclei per well, duplicate mean": 5647, "Call": "inactive"}
{"gene": "CNDP1 (carnosine dipeptidase 1)", "migration robust z-score": -0.8, "nuclei per well, duplicate mean": 5505, "Call": "inactive"}
{"gene": "DDC (dopa decarboxylase)", "migration robust z-score": 0.78, "nuclei per well, duplicate mean": 5768, "Call": "inactive"}
{"gene": "MTTP (microsomal triglyceride transfer protein)", "migration robust z-score": -0.68, "nuclei per well, duplicate mean": 6528, "Call": "inactive"}
{"gene": "PRAMEF1 (PRAME family member 1)", "migration robust z-score": -0.3, "nuclei per well, duplicate mean": 5006, "Call": "inactive"}
{"gene": "BCL2A1 (BCL2 related protein A1)", "migration robust z-score": 2.25, "nuclei per well, duplicate mean": 6550, "Call": "active"}
{"gene": "PLEKHS1 (pleckstrin homology domain containing S1)", "migration robust z-score": -1.08, "nuclei per well, duplicate mean": 4436, "Call": "inactive"}
{"gene": "SLFN12 (schlafen family member 12)", "migration robust z-score": -3.11, "nuclei per well, duplicate mean": 6042, "Call": "active"}
{"gene": "MPZL1 (myelin protein zero like 1)", "migration robust z-score": 1.92, "nuclei per well, duplicate mean": 5592, "Call": "inactive"}
{"gene": "UFSP2 (UFM1 specific peptidase 2)", "migration robust z-score": -0.42, "nuclei per well, duplicate mean": 6426, "Call": "inactive"}
{"gene": "PSMD3 (proteasome 26S subunit, non-ATPase 3)", "migration robust z-score": -1.16, "nuclei per well, duplicate mean": 4974, "Call": "inactive"}
{"gene": "SNX33 (sorting nexin 33)", "migration robust z-score": -0.43, "nuclei per well, duplicate mean": 5518, "Call": "inactive"}
{"gene": "SLC61A1", "migration robust z-score": 0.86, "nuclei per well, duplicate mean": 7749, "Call": "inactive"}
{"gene": "BICD2 (BICD cargo adaptor 2)", "migration robust z-score": 0.37, "nuclei per well, duplicate mean": 6158, "Call": "inactive"}

Ordered by “nuclei per well, duplicate mean” (high to low): some entries from above.
{"gene": "DDC (dopa decarboxylase)", "migration robust z-score": 0.78, "nuclei per well, duplicate mean": 5768, "Call": "inactive"}
{"gene": "CNDP1 (carnosine dipeptidase 1)", "migration robust z-score": -0.8, "nuclei per well, duplicate mean": 5505, "Call": "inactive"}
